The other results are listed elsewhere or left out.

Protein sequences, listed by entry. Tags and fused reporters are not part of them. Lines headed by an entry give the natural chain unless they say otherwise; changes in a name come on top.
UniProt Q13885, whole entry, looked up: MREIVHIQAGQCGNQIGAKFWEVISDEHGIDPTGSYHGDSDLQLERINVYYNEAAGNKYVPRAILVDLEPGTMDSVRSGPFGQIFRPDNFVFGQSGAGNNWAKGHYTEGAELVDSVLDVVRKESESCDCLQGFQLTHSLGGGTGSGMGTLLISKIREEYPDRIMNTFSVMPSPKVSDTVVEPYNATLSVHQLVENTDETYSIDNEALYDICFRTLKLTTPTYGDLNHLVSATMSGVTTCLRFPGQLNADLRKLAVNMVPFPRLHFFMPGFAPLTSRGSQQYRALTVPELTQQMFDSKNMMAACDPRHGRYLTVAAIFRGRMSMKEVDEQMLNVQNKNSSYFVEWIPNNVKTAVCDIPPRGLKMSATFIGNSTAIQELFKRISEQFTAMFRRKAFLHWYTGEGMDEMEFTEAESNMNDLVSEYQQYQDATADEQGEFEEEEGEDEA
UniProt P51668: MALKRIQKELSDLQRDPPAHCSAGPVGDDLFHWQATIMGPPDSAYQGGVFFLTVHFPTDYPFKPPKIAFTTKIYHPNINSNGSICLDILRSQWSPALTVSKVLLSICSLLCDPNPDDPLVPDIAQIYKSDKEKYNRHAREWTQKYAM
UniProt P0DPH7, whole entry, looked up: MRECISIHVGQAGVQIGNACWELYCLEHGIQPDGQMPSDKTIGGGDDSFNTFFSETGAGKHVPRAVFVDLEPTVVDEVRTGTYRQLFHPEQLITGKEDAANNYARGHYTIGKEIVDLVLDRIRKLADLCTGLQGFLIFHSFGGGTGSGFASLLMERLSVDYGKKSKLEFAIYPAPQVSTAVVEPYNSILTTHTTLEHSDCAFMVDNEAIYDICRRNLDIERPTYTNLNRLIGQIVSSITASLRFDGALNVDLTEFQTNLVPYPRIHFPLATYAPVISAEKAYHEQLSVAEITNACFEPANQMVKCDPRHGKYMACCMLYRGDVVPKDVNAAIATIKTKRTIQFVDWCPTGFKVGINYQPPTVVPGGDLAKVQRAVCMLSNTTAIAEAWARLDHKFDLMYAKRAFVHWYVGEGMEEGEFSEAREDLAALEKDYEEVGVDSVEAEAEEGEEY
UniProt P60604: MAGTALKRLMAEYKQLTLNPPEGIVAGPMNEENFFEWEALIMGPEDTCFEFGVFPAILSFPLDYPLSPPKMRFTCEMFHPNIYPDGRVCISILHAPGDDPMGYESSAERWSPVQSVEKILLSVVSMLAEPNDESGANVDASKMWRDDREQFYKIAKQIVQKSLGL
UniProt Q9BRA2: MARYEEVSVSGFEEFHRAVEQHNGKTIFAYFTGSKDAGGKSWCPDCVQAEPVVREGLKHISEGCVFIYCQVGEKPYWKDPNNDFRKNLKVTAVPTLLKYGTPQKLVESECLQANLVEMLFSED
UniProt Q7Z3V4: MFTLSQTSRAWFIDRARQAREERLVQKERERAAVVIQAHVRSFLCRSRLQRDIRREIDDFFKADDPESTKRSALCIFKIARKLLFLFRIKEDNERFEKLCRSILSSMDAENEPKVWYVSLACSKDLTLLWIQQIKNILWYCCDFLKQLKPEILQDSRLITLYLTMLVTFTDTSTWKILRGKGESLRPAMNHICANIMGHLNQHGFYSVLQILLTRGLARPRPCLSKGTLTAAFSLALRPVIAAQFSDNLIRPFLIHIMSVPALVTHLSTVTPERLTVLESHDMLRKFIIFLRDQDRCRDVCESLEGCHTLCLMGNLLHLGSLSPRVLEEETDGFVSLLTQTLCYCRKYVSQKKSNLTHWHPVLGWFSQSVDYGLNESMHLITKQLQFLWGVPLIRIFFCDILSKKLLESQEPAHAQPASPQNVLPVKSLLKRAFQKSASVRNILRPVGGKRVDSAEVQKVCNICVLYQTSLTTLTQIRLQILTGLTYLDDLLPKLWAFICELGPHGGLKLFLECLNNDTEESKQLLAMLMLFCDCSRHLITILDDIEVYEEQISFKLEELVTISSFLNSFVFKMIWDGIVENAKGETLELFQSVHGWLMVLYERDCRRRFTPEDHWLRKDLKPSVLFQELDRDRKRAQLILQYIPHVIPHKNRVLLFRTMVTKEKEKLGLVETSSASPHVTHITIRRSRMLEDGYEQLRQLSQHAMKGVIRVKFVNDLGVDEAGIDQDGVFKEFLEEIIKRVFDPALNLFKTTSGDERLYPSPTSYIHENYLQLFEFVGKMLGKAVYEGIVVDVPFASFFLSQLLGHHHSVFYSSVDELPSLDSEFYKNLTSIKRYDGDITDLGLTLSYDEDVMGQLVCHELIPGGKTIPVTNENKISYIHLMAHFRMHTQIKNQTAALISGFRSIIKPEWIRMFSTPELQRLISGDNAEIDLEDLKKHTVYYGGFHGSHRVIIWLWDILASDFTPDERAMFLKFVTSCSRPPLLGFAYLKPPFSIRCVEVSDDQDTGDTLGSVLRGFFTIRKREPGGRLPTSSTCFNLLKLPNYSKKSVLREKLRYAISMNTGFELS
UniProt O94888: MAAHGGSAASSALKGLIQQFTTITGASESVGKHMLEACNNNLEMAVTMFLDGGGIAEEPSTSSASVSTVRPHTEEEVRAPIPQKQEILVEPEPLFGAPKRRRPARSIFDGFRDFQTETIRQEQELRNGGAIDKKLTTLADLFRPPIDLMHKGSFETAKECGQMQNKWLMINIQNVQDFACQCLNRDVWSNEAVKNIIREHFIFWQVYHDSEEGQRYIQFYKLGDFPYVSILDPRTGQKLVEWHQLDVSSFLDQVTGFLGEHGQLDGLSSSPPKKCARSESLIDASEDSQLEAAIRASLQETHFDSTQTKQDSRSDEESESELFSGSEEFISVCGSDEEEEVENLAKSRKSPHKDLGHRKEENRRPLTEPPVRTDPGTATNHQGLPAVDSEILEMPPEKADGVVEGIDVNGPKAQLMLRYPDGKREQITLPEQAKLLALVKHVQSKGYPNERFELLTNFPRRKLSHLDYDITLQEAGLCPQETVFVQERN
UniProt Q9GZZ9, whole entry, looked up: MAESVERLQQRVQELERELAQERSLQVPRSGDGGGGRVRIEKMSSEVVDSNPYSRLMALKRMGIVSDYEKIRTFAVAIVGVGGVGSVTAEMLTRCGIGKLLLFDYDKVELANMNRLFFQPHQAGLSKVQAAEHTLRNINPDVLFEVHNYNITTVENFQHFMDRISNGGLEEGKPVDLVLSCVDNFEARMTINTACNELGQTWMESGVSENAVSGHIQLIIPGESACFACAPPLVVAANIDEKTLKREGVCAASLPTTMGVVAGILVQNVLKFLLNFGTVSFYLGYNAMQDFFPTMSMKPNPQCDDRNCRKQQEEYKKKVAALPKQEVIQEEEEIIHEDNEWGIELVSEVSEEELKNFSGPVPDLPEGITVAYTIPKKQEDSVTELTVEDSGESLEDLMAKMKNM
UniProt Q9BZX2: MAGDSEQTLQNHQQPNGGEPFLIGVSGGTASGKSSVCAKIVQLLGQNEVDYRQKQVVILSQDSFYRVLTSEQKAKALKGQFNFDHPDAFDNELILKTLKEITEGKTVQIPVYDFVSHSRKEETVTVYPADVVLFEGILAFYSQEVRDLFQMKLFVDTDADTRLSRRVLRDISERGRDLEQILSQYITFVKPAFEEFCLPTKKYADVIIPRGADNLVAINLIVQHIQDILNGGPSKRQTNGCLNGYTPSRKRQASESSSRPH
UniProt Q05086: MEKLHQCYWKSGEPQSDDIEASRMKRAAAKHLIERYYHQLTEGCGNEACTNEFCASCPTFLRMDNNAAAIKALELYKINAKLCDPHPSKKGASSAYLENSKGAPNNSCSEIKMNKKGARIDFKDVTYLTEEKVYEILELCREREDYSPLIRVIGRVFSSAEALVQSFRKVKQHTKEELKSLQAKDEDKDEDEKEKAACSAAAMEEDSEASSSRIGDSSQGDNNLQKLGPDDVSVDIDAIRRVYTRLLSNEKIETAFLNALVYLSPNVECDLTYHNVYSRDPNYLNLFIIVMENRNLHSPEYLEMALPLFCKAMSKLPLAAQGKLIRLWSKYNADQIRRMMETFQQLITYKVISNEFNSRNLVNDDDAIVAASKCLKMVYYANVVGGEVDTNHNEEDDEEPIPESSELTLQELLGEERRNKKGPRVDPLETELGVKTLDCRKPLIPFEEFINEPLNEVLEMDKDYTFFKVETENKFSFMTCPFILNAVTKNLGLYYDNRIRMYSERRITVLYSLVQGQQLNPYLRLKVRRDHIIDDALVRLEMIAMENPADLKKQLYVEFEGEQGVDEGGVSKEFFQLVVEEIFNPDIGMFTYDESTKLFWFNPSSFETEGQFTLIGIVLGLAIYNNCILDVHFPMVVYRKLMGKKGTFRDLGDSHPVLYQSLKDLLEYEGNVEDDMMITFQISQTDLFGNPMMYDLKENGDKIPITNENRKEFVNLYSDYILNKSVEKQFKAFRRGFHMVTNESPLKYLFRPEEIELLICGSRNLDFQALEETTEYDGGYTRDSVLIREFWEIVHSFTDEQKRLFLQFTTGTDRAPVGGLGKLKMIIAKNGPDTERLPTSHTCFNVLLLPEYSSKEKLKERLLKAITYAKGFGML
UniProt Q9Y5Z9: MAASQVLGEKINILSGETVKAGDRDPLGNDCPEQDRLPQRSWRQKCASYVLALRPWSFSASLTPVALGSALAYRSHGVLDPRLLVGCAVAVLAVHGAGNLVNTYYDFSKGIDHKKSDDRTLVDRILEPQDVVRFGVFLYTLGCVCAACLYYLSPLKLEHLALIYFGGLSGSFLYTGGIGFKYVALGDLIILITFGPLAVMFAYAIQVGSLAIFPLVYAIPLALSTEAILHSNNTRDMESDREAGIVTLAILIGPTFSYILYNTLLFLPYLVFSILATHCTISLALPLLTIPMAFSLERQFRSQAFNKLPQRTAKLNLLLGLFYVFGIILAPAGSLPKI
UniProt P68543: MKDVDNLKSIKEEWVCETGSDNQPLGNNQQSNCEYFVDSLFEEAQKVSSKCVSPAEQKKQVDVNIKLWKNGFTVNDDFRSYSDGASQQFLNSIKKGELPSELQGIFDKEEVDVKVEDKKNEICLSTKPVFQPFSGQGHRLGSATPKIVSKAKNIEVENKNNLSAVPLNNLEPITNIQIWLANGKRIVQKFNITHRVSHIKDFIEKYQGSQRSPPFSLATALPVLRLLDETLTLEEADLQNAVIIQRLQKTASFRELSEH
UniProt Q8N2K1: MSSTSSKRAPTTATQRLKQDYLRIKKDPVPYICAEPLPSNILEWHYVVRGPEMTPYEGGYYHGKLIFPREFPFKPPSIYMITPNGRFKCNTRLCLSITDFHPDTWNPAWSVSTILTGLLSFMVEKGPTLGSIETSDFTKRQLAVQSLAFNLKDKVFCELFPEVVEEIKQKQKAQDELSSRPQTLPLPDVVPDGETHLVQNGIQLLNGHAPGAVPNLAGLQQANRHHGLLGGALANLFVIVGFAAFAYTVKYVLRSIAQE
UniProt Q9H6E5: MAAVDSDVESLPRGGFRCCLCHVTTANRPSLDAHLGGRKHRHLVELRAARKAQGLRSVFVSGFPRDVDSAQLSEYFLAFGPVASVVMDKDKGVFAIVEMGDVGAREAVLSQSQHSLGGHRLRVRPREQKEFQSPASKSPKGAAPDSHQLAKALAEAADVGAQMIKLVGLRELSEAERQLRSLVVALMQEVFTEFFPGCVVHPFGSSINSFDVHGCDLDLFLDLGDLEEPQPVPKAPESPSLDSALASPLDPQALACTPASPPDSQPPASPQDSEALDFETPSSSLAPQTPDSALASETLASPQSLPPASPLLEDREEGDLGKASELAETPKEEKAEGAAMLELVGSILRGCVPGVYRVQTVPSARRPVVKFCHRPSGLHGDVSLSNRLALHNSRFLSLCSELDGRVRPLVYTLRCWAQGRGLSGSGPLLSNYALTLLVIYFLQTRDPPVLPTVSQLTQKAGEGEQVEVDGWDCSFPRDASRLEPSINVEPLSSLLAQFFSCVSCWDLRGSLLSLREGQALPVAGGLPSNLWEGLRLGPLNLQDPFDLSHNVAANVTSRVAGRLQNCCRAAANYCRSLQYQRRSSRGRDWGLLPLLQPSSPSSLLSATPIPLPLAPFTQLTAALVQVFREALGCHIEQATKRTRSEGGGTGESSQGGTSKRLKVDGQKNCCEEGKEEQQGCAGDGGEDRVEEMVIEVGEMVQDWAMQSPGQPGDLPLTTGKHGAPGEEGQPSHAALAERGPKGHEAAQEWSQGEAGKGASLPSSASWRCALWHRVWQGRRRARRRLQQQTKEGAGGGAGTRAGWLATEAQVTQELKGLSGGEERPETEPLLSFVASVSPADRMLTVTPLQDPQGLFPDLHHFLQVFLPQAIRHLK
UniProt P11441: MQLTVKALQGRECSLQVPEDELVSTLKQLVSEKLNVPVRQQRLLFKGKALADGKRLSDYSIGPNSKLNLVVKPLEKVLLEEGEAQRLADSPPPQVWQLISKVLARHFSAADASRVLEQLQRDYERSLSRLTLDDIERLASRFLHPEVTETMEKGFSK
UniProt Q01081: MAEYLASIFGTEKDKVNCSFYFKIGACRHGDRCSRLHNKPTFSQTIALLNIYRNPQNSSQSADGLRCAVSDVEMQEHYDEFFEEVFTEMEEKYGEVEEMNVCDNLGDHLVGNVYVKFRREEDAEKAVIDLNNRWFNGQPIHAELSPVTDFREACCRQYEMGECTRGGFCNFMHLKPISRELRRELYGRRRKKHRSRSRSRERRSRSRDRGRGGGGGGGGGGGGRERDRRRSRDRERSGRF

Compound in one assay: CCn1c(C(=O)N(C2CC2)C2CC2)cc2c3c(ncn3C)c(Nc3cc(C)n(C)n3)nc21
Briefly: log2 fold change, soluble protein after heating vs DMSO (PISA); higher = thermal stabilisation; K562 lysate, 10 uM; active = over 0.2 and 3.5 SD of the protein, either way, in both replicates (recomputed). The method in brief: (§1)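 To prepare the extract, K562 pellets were dounce-homogenised in PBS pH 7.4 with 1 mM MgCl2, giving crude material at 1 mg/mL protein. This was treated with 10 μM compound for 30 min, then heated in aliquots for 3 min over 48°C-58°C before pooling and addition of NP-40 to 0.5% at 4°C. Centrifugation at 21,000xg for 90 min left soluble protein in the supernatant, which TMTpro 16plex LC-MS/MS quantified with equalised channel sums. Results are log-two fold changes in thermal stability compared with solvent controls, from duplicates.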
Regarding TUBB2A (UniProt Q13885), the log2 fold change was inactive: 0.003.
The same measure, in the same setting: the figure for UBE2D1 (UniProt P51668) is inactive: 0.089; for TUBB4A (UniProt M0QYM7) it is inactive: -0.053.
In the case of TUBA3C (UniProt P0DPH7), the log2 fold change was inactive: 0.012.
As to UBE2G2 (UniProt P60604), the log2 fold change is inactive: 0.099.
UBE2I (UniProt H3BQQ9): the log2 fold change is inactive: -0.096.
For TXNDC17 (UniProt Q9BRA2), the log2 fold change is inactive: -0.023.
With UBE3B (UniProt Q7Z3V4), the log2 fold change is inactive: 0.029.
As to UBXN7 (UniProt O94888), the log2 fold change is inactive: -0.04.
Consider UBA5 (UniProt Q9GZZ9), for which the log2 fold change was inactive: -0.01.
As to UBE2F isoform 2 (UniProt Q969M7), the log2 fold change is inactive: -0.031.
As to UCK2 (UniProt Q9BZX2), the log2 fold change is inactive: -0.012.
For UBE3A (UniProt Q05086), the log2 fold change was inactive: -0.036.
As to UBE2E3 (UniProt Q969T4), the log2 fold change is inactive: -0.024.
Still for that read-out and setting: in the case of UBIAD1 (UniProt Q9Y5Z9) it was inactive: -0.083.
Consider UBQLN1 isoform 2 (UniProt Q9UMX0), for which the log2 fold change was inactive: -0.058.
Still for that read-out and setting: in the case of UBE2N (UniProt P61088) it was inactive: 0.012; in that of UBR4 isoform 4 (UniProt Q5T4S7), inactive: 0.077.
For UBR4 (UniProt Q5T4S7), the log2 fold change is inactive: 0.019.
Same read-out and setting: the figure for UBXN2A (UniProt P68543) is inactive: -0.053; for UBE2J2 (UniProt Q8N2K1) it is inactive: -0.16; for TUFM (UniProt P49411) it is inactive: 0.017.
For the target TUT1 (UniProt Q9H6E5), the log2 fold change was inactive: 0.035.
Take TUBB6 (UniProt K7ES63): the log2 fold change was inactive: 0.018.
As for UBE2K (UniProt P61086), the log2 fold change is inactive: -0.017.
On to TXNRD2 (UniProt Q9NNW7), for which the log2 fold change is inactive: -0.008.
On to UBL4A (UniProt P11441), for which the log2 fold change was inactive: 0.121.
Consider U2AF1 isoform 2 (UniProt Q01081), for which the log2 fold change was inactive: 0.015.
Turning to TXNDC16 (UniProt Q9P2K2), the log2 fold change is inactive: 0.095.

Compound in a further assay: CCn1cc(-c2ccnc3[nH]c(-c4cccc(CN(C)C)c4)cc23)c(-c2ccc(NC(=O)N(C)C)cc2)n1
The description is as above. In short, it runs like this:
as §1
As to TUBB2A (UniProt Q13885), the log2 fold change was inactive: -0.032.
For UBE2D1 (UniProt P51668), the log2 fold change is inactive: 0.007.
On the same count and under the same terms, in the case of TUBB4A (UniProt M0QYM7) it was inactive: -0.772; in that of UBN1 (UniProt Q9NPG3), inactive: -0.127.
As to TUBA3C (UniProt P0DPH7), the log2 fold change is inactive: -0.062.
Turning to UBE2G2 (UniProt P60604), the log2 fold change was inactive: 0.171.
Turning to UBE2I (UniProt H3BQQ9), the log2 fold change is inactive: -0.244.
Take TXNDC17 (UniProt Q9BRA2): the log2 fold change was inactive: -0.054.
On the same count and under the same terms, in the case of UBE3B (UniProt Q7Z3V4) it was inactive: -0.099; in that of UBXN7 (UniProt O94888), inactive: -0.044.
In the case of UBA5 (UniProt Q9GZZ9), the log2 fold change was inactive: 0.03.
For the target UBE2F isoform 2 (UniProt Q969M7), the log2 fold change is inactive: 0.114.
Turning to UCK2 (UniProt Q9BZX2), the log2 fold change was inactive: -0.036.
On to UBE3A (UniProt Q05086), for which the log2 fold change is inactive: -0.088.
With UBE2E3 (UniProt Q969T4), the log2 fold change was inactive: -0.014.
Regarding UBIAD1 (UniProt Q9Y5Z9), the log2 fold change is inactive: 0.045.
U2AF2 (UniProt K7ELP8): the log2 fold change was inactive: 0.074.
UBE2N (UniProt P61088): the log2 fold change is inactive: 0.061.
On to UBR4 (UniProt Q5T4S7), for which the log2 fold change was inactive: -0.034.
As for UBXN2A (UniProt P68543), the log2 fold change was inactive: -0.056.
On to UBE2J2 (UniProt Q8N2K1), for which the log2 fold change was inactive: 0.012.
As for TUFM (UniProt P49411), the log2 fold change is inactive: 0.07.
For TUT1 (UniProt Q9H6E5), the log2 fold change is inactive: -0.077.
For the target TUBB6 (UniProt K7ES63), the log2 fold change is inactive: -0.06.
For the target UBE2K (UniProt P61086), the log2 fold change is inactive: 0.021.
On to TXNRD2 (UniProt Q9NNW7), for which the log2 fold change is inactive: -0.031.
On to UBL4A (UniProt P11441), for which the log2 fold change was active: 0.33.
Same read-out and setting: in the case of U2AF1 isoform 2 (UniProt Q01081) it was inactive: -0.096; in that of TXNDC16 (UniProt Q9P2K2), inactive: -0.014.

Compound in another assay: CN1CCC(CNc2ccc3ncc(-c4cccc(OC(F)(F)F)c4)n3n2)CC1
The assay is described as above. In short, it runs like this:
as §1
On to TUBB2A (UniProt Q13885), for which the log2 fold change was inactive: 0.002.
For the target UBE2D1 (UniProt P51668), the log2 fold change was inactive: -0.025.
The same measure, in the same setting: in the case of TUBB4A (UniProt M0QYM7) it was inactive: 0.448; in that of UBN1 (UniProt Q9NPG3), inactive: 0.057.
Regarding TUBA3C (UniProt P0DPH7), the log2 fold change is inactive: -0.013.
Regarding UBE2G2 (UniProt P60604), the log2 fold change is inactive: 0.019.
Still for that read-out and setting: in the case of UBE2I (UniProt H3BQQ9) it was inactive: 0.224.
With TXNDC17 (UniProt Q9BRA2), the log2 fold change is inactive: 0.02.
With UBE3B (UniProt Q7Z3V4), the log2 fold change was inactive: -0.132.
On to UBXN7 (UniProt O94888), for which the log2 fold change is inactive: 0.021.
For the target UBA5 (UniProt Q9GZZ9), the log2 fold change is inactive: 0.048.
On the same count and under the same terms, the figure for UBE2F isoform 2 (UniProt Q969M7) is inactive: 0.009; for UCK2 (UniProt Q9BZX2) it is inactive: 0.063.
For the target UBE3A (UniProt Q05086), the log2 fold change is inactive: 0.022.
For the target UBE2E3 (UniProt Q969T4), the log2 fold change is inactive: -0.016.
Turning to UBIAD1 (UniProt Q9Y5Z9), the log2 fold change was inactive: -0.335.
Take U2AF2 (UniProt K7ELP8): the log2 fold change was inactive: -0.17.
Turning to UBE2N (UniProt P61088), the log2 fold change was inactive: 0.033.
Turning to UBR4 (UniProt Q5T4S7), the log2 fold change was inactive: -0.031.
For UBXN2A (UniProt P68543), the log2 fold change was inactive: 0.118.
On the same count and under the same terms, the figure for UBE2J2 (UniProt Q8N2K1) is inactive: 0.12; for TUFM (UniProt P49411) it is inactive: -0.074; for TUT1 (UniProt Q9H6E5) it is inactive: -0.041.
On the same count and under the same terms, the figure for TUBB6 (UniProt K7ES63) is inactive: 0.23.
Turning to UBE2K (UniProt P61086), the log2 fold change is inactive: 0.034.
As to TXNRD2 (UniProt Q9NNW7), the log2 fold change was inactive: 0.082.
Regarding UBL4A (UniProt P11441), the log2 fold change was inactive: -0.094.
On to U2AF1 isoform 2 (UniProt Q01081), for which the log2 fold change is inactive: 0.066.
For TXNDC16 (UniProt Q9P2K2), the log2 fold change was inactive: -0.068.

These data come from the supplement of paper PMC10849652.
